Source: patent US11197861B2, “Methods of screening BRaf inhibitors for treating cutaneous reactions” (Lutris Pharma Ltd., priority 2016, dated 2021)
At least one compound was matched to its structure with a doubt left.

Tested on: MAPK (ERK)
Assay: Activation of MAPK (ERK) in human normal keratinocytes (HEKa), Western blot of phospho-ERK / total ERK
Assay type: cell-based
Conditions: human primary keratinocytes (HEKa), 2 hours treatment
Procedure: Human normal Keratinocyte cells HEKa were seeded in 10 cm dishes (300,000 cells/dish) and incubated overnight at 37° C., 5% CO2. Next morning, the cells were starved for 2 hours and then treated with the various inhibitors (or control treatments) for 2 hours. Post incubation the cells were lyzed with RIPA Buffer and the protein extracts were analyzed by Western-Blot for detection of phospho ERK and total ERK2, by use of suitable antibodies. Untreated and 0.1% DMSO treated cells were used as negative control. Growth factors mix (HKGS) was used as positive control (Gibco CAT #: S0015).
Western Blot: 7.5 μg of total extract was loaded on 10% or 12% acrylamide gels. Following transfer, the membranes were blocked with TBST/5% skim milk and then incubated with Mouse anti phospho ERK (1:1000 in TBST 5% BSA, ON at 4° C.) and goat anti Mouse HRP (1:10,000 in TBST 5% BSA, 1 hour RT). The membranes were exposed using SuperSignal West Pico Chemiluminescent Substrate. The HRP was then inactivated by incubating the membranes for 1 hour with 0.5% Sodium azide. […] The resulting images (films) were scanned and the signal were quantified using ImageJ software. […]

## CCCS(=O)(=O)Nc1ccc(F)c(C(=O)c2c[nH]c3ncc(-c4ccc(Cl)cc4)cc23)c1F [Vemurafenib, vemurafenib]
1 μM, FIGS. 4A-C
  activation of ERK (increase in relative amount of Phosphorylated ERK): activation of ERK
Increasing amounts 0.3 μM, 1 μM or 3 μM, FIGS. 1-3
  activation of ERK (increase in relative amount of Phosphorylated ERK): activation of ERK
